{"source": "patent US20150283152A1", "about": "“Levonorgestrel-Only-Composition For Optimized Oral Contraception With Defined Levonorgestrel Content, Dosage Regimen And Pharmaceutical Preparation” (NAARI AG, priority 2012, published 2015)", "key": {"[1]": {"system": "New Zealand-rabbits", "test": "Pre-ovulatory repeated oral levonorgestrel, rate of fertilized eggs in rabbits (ovulation induced by PMSG/hCG)", "assay_type": "in vivo, rabbit", "description": "On the last day of LNG-administration, the ovulation was “forced” by intravenous (i.v.) injection of human chorionic gonadotropin (hCG). […] [table]"}, "[2]": {"system": "female paired Wistar-rats", "test": "Post-ovulatory subcutaneous levonorgestrel, fertility of female paired rats", "assay_type": "in vivo, rat", "experimental": "Whereas 20 mg/kg bodyweight (b.w.). […] [table]"}, "[3]": {"system": "women", "settings": "cited from earlier work"}, "[4]": {"system": "healthy adult female subjects with normal ovulatory cycles", "test": "Randomized double-blind parallel group clinical trial of two new LPOP forms", "assay_type": "in vivo, human", "settings": "56 days, women"}, "[5]": {"system": "rats", "settings": "cited from earlier work"}, "[6]": {"system": "rabbits", "settings": "cited from earlier work"}}, "note": "At least one structure is not confirmed: it was looked up by name or label, or the drawing left a doubt. Marks after values point to notes of the source that are not given here.", "data": [{"molecule": "C#C[C@]1(O)CC[C@H]2[C@@H]3CCC4=CC(=O)CC[C@@H]4[C@H]3CC[C@@]21CC", "note": "[levonorgestrel]", "values": [{"measurement": "effect on rate of fertilized eggs", "setting": "[1]; pre-ovulatory oral administration over three days in rabbits", "value": "reduced the rate of fertilized eggs in a dose-dependent manner"}, {"measurement": "Total no. of eggs vs. total no. of fertilized (cleaved) eggs", "setting": "[1]; total dosage 5.25 mg/animal p.o. over 3 days, rabbits, significantly different to control (p < 0.05)", "value": "112/61 *"}, {"measurement": "postovulatory contraceptive activity", "setting": "[2]; 5 mg/kg b.w. and day over 4 days", "value": "fully effective"}, {"measurement": "postovulatory contraceptive activity", "setting": "[2]; 20 mg/kg bodyweight given once post-coitally", "value": "ineffective"}, {"measurement": "ovulation-inhibiting dose", "setting": "[3]", "value": 0.06, "unit": "mg/day"}, {"measurement": "Progesterone serum levels, behavior of cervical mucus, cycle characteristics and tolerability", "setting": "[4]; 0.06 mg/day (Group A) vs 0.09 mg/day (Group B)", "value": "no differences between the two treatment groups"}, {"measurement": "Positive pregnancy tests or pregnancies", "setting": "[4]; 0.06 or 0.09 mg/day", "value": "didn't occur as yet"}, {"measurement": "activity after oral administration", "setting": "[5]; oral, in contrast to s.c. route", "value": "do not work"}, {"measurement": "ovulation-inhibiting dosage", "setting": "[5]; single oral administration", "value": 128, "unit": "mg/kg bodyweight"}, {"measurement": "oral dosage giving significant inhibition of physiologic ovulation", "setting": "[6]", "value": 0.5, "unit": "mg/kg bodyweight"}]}]}
